# According to PubChem BioAssay AID540276 (National Center for Advancing Translational Sciences (NCATS), 2011):
# Hit rate of the full screen: of about 300,000 compounds, about 5,400 (1.8%) were called active. Inconclusive results, whose numbers are uncertain, are shown with a selection of clear calls. Calls come from the whole dose curve; tested in HEK293 cells. A potency beside an inconclusive call is a rough fit, not a confirmed value.
# Assay: qHTS for inhibitors of binding or entry into cells for Marburg Virus
# Conditions: Marburg virus pseudotyped entry inhibition, cell reporter; series mostly up to 37.8 µM
# Potency is the fitted concentration of half-maximal effect.
row,Structure (SMILES),Potency
1,CCOCc1nnc(NC(=O)CCC2CCCCC2)s1,"inconclusive: 35.5 µM [activator, single point]"
2,Cc1ccccc1NCc1nc2ccccc2n1CCOc1ccccc1,"inconclusive: 2.24 µM [activator, single point]"
3,COc1ccc(NC2=C(C(C)=O)C(c3ccccc3)C(C(C)=O)C(C)(O)C2)cc1 (stereo not drawn),"inconclusive: 10 µM [inhibitor, partial curve, poor fit]"
4,CC(C)N(C(=S)Nc1cc(S(=O)(=O)N2CCOCC2)ccc1Cl)c1ccccc1,"inconclusive: 35.5 µM [activator, single point]"
5,CN1CCC/C1=C1/C(=O)N(c2ccccc2)N=C1NC(=O)Nc1cccc(Cl)c1,inactive
6,CCOc1ccc(NC(=O)CN(C)C(=O)c2cccc(S(=O)(=O)N3CCCC3)c2)cc1OCC,inactive
7,COc1cc(C2C(C#N)=C(N)Oc3c2c(-c2ccccc2)nn3-c2ccccc2)cc(OC)c1OC (stereo not drawn),"inconclusive: 3.55 µM [activator, single point]"
8,COc1ccc(-n2c3c(cc(-c4nc(-c5ccc(Cl)cc5)cs4)c2=O)C(=O)CC(C)(C)C3)cc1Cl,"inconclusive: 11.2 µM [activator, single point]"
9,CC(C)(C)NC(=O)CSc1nsc(SCC(=O)NC(C)(C)C)c1C#N,inactive
10,C=CCn1cc(CN2CCC(C(=O)Nc3cccc(-c4cccc(F)c4)c3)CC2)c(C)n1,"inconclusive: 0.282 µM [activator, full curve, poor fit]"
11,Cc1cccc(OCCCn2c(CCNC(=O)C(C)C)nc3ccccc32)c1,"inconclusive: 35.5 µM [inhibitor, single point]"
12,COc1ccccc1N1CCN(CCCn2c(=S)[nH]c3ccccc3c2=O)CC1,"inconclusive: 15.8 µM [inhibitor, single point]"
13,CCOC(=O)C1=C(C)N=C2SC(C)C(=O)N2C1c1cccc(F)c1 (stereo not drawn),"inconclusive: 31.6 µM [inhibitor, single point]"
14,CCCCn1c(SCC(=O)N2CCN(c3ccccc3)CC2)nc2ccsc2c1=O,"inconclusive: 20.6 µM [inhibitor, partial curve, poor fit]"
15,O=C1CSC(=S)N1Cc1cccnc1,"inconclusive: 14.1 µM [inhibitor, single point]"
16,CCCCNC(=O)CCCn1c(=O)c2ccccc2n(CC(=O)NCCC2=CCCCC2)c1=O,"inconclusive: 22.4 µM [activator, single point]"
17,Cc1ccc(NC(=O)c2ccc([N+](=O)[O-])o2)cc1S(=O)(=O)N1CCOCC1,"inconclusive: 11.2 µM [inhibitor, partial curve, poor fit]"
18,O=C(OCN1C(=O)c2ccccc2C1=O)c1ccccc1,inactive
19,COc1ccc(CCNc2nc3cc(OC)c(OC)cc3c3nc(-c4cccnc4)nn23)cc1OC,inactive
20,COc1ccccc1-c1cc(C(=O)N/N=C/c2ccoc2)c2ccccc2n1,"inconclusive: 35.5 µM [inhibitor, single point]"
21,CCC1Oc2ccc(C)cc2N(CC(=O)N2CCOCC2)C1=O (stereo not drawn),inactive
22,COC(=O)c1[nH]c2c(c1C)C(=O)CC(c1ccccc1)C2 (stereo not drawn),"inconclusive: 2.06 µM [inhibitor, full curve]"

# An excerpt from above in order of heavy-atom count, smallest number first:
row,Structure (SMILES),Potency
13,CCOC(=O)C1=C(C)N=C2SC(C)C(=O)N2C1c1cccc(F)c1 (stereo not drawn),"inconclusive: 31.6 µM [inhibitor, single point]"
11,Cc1cccc(OCCCn2c(CCNC(=O)C(C)C)nc3ccccc32)c1,"inconclusive: 35.5 µM [inhibitor, single point]"
7,COc1cc(C2C(C#N)=C(N)Oc3c2c(-c2ccccc2)nn3-c2ccccc2)cc(OC)c1OC (stereo not drawn),"inconclusive: 3.55 µM [activator, single point]"

# (cont.)

row,Structure (SMILES),Potency
1,Cc1cccc(-c2nn(-c3ccccc3)cc2C(=O)N(C)CC(=O)Nc2ccc(N3CCOCC3)cc2)c1,inactive
2,NS(=O)(=O)c1cccnc1Nc1c(Cl)cccc1Cl,"inconclusive: 3.16 µM [inhibitor, partial curve, poor fit]"
3,Cc1cccc(NC(=O)c2sc(-n3nc(C)c(CCC(C)C)c3C)nc2C)c1,inactive
4,NC(=O)c1cc(-c2csc(NCCc3ccccc3)n2)ccc1O,"inconclusive: 5.01 µM [inhibitor, partial curve, poor fit]"
5,COc1ccc(OCc2cccc(C(=O)N3CCCC3)c2)cc1,"inconclusive: 35.5 µM [inhibitor, single point]"
6,COc1ccc(OCCNC(=O)c2ccccc2OCC(=O)Nc2ccc(NC(C)=O)cc2)cc1,active: 7.08 µM
7,Cc1ccc(-n2nnnc2SC(C)C(=O)Nc2ccccc2-c2ccccc2)cc1 (stereo not drawn),inactive
8,C[C@]12CCC3C(CCC4=CC(O)CC[C@@]43/C=N/O)C1(O)CCC2C1=CC(=O)OC1 (stereo partly drawn),"inconclusive: 0.316 µM [inhibitor, full curve, poor fit]"
9,COC1=C(OC)C(=O)c2ccccc2C1=O,"inconclusive: 35.5 µM [inhibitor, single point]"
10,Cc1ccc(CSCC(=O)Nc2ccccc2)cc1,"inconclusive: 22.4 µM [activator, single point]"
11,CCOC(=O)c1cnc(SC)nc1Oc1cccc(NC(=O)c2cccc(Cl)c2Cl)c1,"inconclusive: 14.1 µM [activator, single point]"
12,Cn1c(CCNC(=O)c2ccccc2Cl)n[nH]c1=S,inactive
13,Cc1nc(NC(=O)CSc2nnnn2Cc2ccccc2)sc1C,inactive
14,CCCS(=O)(=O)N1CCCC(C(=O)Oc2ccccc2Cl)C1 (stereo not drawn),"inconclusive: 3.55 µM [inhibitor, partial curve, poor fit]"
15,O=C(Cc1cccc2ccccc12)N/N=C/c1ccc(Sc2nc3ccccc3s2)o1,"inconclusive: 29.1 µM [inhibitor, single point]"
16,COc1ccc(-n2c(=S)[nH]c3cc(C(=O)NCCCN4CCOCC4)ccc3c2=O)cc1,inactive
17,COc1ccc(/C([O-])=C(/C(=S)Nc2ccc(C)c(C)c2)n2c[n+](C)c3ccccc32)cc1OC,inactive
18,CCc1nnc(NC(=O)c2ccc(-c3ccc(F)cc3)o2)s1,inactive
19,O=C(/C(=C/O)N=Nc1cccc(C(F)(F)F)c1)c1ccccc1,"inconclusive: 22.4 µM [inhibitor, partial curve, poor fit]"
20,Cc1ccc(C(=O)Oc2ccc(C(=O)COC(=O)c3cnccn3)cc2)cc1,"inconclusive: 23.1 µM [activator, single point]"
21,CCN1CCN(c2nn3c(=O)c4ccccc4nc3c3ccccc23)CC1,"inconclusive: 14.1 µM [inhibitor, partial curve, poor fit]"

# Reformatted tab-delimited: two of the compounds above.
row	Structure (SMILES)	Potency
12	Cn1c(CCNC(=O)c2ccccc2Cl)n[nH]c1=S	inactive
13	Cc1nc(NC(=O)CSc2nnnn2Cc2ccccc2)sc1C	inactive
